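Control-channel Italica luciferase signal in doxycycline-induced 293T-iDUX4 cells, given as percent activity after a 24-hour treatment. The test concentration is not given here. Percent change in the Italica control signal; more negative values mean stronger inhibition, which points to nonspecific, tet-on or cytotoxic effects.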

Values are in %. Common to all entries: measured here: Italica tet-on control reporter. This is a side read-out of the assay, for part of the compounds, not drawn at random.

For CN(C)C(=O)c1cccc(-c2ccc3c(c2)[C@H]2[C@H](CCN2C(=O)C2CCOCC2)[C@H](CO)N3)c1 the result was activity change -16.3%.
For CS(=O)(=O)Nc1ccc2c(c1)[C@@H]1C[C@@H](CC(=O)NCc3ccc(Cl)cc3)O[C@@H](CO)[C@@H]1O2 the result was activity change -8.181%.
For C[C@@H]1CN([C@@H](C)CO)C(=O)c2c(c3ccccc3n2C)-c2ccccc2CO[C@H]1CN(C)Cc1ccc(Oc2ccccc2)cc1 the result was activity change -2.114%.
For COc1ccccc1CN(C)C[C@@H]1OCc2ccccc2-c2c(n(C)c3ccccc23)C(=O)N([C@H](C)CO)C[C@H]1C the result was activity change -11.08%.
For COc1cccc(S(=O)(=O)N2CCCCN3[C@H](CO)[C@@H](c4ccc(C#CC5CC5)cc4)[C@@H]3C2)c1 the result was activity change -0.3758%.
For COc1ccc2c3c([nH]c2c1)[C@H](CO)N(Cc1cc(F)ccc1F)CC31CN(C)C1 the result was activity change -13.99%.
For COc1ccc2c3c([nH]c2c1)[C@H](CO)N(Cc1ccccc1)CC31CCN(C(=O)c2ccccn2)CC1 the result was activity change -14.57%.
For CN(C)C(=O)c1cccc(-c2ccc3c(c2)[C@@H]2[C@@H](CCN2C(=O)c2ccccc2)[C@H](CO)N3C)c1 the result was activity change -24.66%.
For O=C(C[C@H]1C[C@@H]2c3cc(NS(=O)(=O)c4ccc(F)cc4)ccc3O[C@@H]2[C@@H](CO)O1)NCCc1ccccc1 the result was activity change -4.499%.
For N#C[C@@H]1[C@@H](c2ccccc2-c2ccccc2)[C@@H](CO)N1C(=O)NC1CCCC1 the result was activity change -5.049%.
For O=C(c1ccc(F)cc1)N1CC2(C1)[C@H](c1ccccc1)[C@@H](CO)N2Cc1ccccn1 the result was activity change -6.88%.
For C[C@@H]1CN([C@H](C)CO)C(=O)c2ccccc2-c2ccccc2CO[C@@H]1CN(C)C(=O)c1cc(Cl)cc(Cl)c1 the result was activity change -93.92%.
For Cc1ccccc1S(=O)(=O)N(C)C[C@@H]1OCc2ccccc2-c2c(n(C)c3ccccc23)C(=O)N([C@H](C)CO)C[C@@H]1C the result was activity change -93.4%.
For C[C@@H](C(=O)N(C)C[C@H]1OCc2ccccc2-c2c(n(C)c3ccccc23)C(=O)N([C@@H](C)CO)C[C@@H]1C)c1ccccc1 the result was activity change -28.96%.
For O=C(c1ccc2c(c1)OCO2)N1CC[C@H]2[C@H](CO)Nc3ccc(-c4ccc(F)cc4)cc3[C@H]21 the result was activity change -45.12%.
For CN(C)C(=O)c1cccc(-c2ccc3c(c2)[C@@H]2[C@@H](CCN2C(=O)c2cccnc2)[C@@H](CO)N3)c1 the result was activity change -0.9292%.
For COc1ccc(C#Cc2ccc3c(c2)[C@H]2[C@H](CCN2S(=O)(=O)c2cccc(OC)c2)[C@H](CO)N3C)cc1 the result was activity change -0.3349%.
For O=S(=O)(c1cccs1)N1CCCCN2[C@H](CO)[C@H](c3ccc(Br)cc3)[C@H]2C1 the result was activity change -9.639%.
For CCCN(C)C[C@H]1OCc2cnnn2CCCC(=O)N([C@H](C)CO)C[C@@H]1C the result was activity change 5.975%.

Once more, the final 2:

- O=S(=O)(c1cccs1)N1CCCCN2[C@H](CO)[C@H](c3ccc(Br)cc3)[C@H]2C1 : activity change -9.639%
- CCCN(C)C[C@H]1OCc2cnnn2CCCC(=O)N([C@H](C)CO)C[C@@H]1C : activity change 5.975%

From PubChem BioAssay record AID1224904 (Broad Institute, 2016).